Experimental data taken from the supplement of paper PMC12823440, “Inhibitors supercharge kinase turnover through native proteolytic circuits” (Nature, 2025).
Counter-ions that a name gives are not always drawn. The list shows a part of the results. The calls rarely recur for the same compound in another form.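 Kinases were expressed as nanoluciferase fusions in K562 cells and luminescence was read every 4 h between 2 and 18 h as percent of control, DMSO set to 100% and a positive control to 0%. A time point counts as decreased when the signal drops significantly (2 sigma). The hit call is the authors' own, does not follow from the count of time points alone, and its rule is not shown.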

Amino acid sequences for entries named in this document (tags omitted). A change or cut given only in a name is not applied to a line headed by its entry.
UniProt Q15208: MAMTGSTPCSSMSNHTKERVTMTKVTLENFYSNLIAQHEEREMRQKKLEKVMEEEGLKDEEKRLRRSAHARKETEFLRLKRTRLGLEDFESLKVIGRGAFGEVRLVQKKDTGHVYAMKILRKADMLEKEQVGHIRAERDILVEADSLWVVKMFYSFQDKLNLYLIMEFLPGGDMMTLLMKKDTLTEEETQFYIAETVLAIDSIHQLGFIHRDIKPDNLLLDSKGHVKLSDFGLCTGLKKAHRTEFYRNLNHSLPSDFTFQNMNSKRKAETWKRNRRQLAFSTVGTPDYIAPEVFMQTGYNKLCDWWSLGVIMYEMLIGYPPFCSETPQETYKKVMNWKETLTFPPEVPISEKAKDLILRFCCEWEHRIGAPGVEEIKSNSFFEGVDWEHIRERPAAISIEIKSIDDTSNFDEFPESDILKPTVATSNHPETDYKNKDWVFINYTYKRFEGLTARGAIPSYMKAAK
UniProt P42680: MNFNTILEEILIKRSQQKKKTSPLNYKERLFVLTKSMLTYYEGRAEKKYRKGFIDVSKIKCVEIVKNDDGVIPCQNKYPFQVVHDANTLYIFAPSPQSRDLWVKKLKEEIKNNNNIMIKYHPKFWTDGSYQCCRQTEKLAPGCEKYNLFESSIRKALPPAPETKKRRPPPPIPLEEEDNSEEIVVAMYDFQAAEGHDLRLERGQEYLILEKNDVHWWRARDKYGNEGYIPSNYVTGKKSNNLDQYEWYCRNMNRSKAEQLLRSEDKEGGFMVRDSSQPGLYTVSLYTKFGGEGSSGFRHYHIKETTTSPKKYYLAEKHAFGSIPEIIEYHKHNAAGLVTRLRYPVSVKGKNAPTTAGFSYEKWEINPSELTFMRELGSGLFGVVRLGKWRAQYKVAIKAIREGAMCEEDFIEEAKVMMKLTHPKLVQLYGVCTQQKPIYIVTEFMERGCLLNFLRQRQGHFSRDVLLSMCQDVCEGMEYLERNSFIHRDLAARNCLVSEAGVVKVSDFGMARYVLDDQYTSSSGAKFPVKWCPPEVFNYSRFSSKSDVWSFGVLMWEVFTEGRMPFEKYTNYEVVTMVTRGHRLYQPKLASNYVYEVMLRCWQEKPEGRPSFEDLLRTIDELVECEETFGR
UniProt P29597: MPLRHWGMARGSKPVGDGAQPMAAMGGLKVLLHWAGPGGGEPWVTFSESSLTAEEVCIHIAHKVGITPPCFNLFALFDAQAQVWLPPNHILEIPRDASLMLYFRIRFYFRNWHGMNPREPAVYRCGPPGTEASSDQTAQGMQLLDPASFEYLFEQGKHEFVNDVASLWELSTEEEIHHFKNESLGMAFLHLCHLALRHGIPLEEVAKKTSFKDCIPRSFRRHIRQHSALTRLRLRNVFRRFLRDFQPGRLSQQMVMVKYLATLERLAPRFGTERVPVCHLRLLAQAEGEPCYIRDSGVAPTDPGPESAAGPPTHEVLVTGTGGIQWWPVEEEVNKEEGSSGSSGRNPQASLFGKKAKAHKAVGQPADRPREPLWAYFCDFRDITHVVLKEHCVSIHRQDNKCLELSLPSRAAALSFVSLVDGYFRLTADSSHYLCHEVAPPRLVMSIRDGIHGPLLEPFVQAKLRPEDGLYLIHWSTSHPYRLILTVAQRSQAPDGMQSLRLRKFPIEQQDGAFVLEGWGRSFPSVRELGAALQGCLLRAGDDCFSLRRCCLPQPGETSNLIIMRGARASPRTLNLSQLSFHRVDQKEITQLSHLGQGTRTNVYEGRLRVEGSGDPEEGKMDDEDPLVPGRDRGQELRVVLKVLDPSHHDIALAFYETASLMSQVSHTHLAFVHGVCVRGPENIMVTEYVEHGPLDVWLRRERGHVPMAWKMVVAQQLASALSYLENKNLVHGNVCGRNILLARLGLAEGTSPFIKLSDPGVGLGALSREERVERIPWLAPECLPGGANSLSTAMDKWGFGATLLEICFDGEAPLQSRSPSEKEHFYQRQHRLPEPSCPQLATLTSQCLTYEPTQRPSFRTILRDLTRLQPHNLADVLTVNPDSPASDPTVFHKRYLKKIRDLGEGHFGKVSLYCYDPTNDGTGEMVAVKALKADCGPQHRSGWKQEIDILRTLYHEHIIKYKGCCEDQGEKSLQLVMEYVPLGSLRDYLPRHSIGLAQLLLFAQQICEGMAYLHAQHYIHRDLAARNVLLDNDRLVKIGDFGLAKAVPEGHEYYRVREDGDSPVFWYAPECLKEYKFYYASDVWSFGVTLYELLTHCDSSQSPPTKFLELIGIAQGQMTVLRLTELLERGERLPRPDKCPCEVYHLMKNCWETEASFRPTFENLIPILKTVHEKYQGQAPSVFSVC
UniProt Q6PHR2: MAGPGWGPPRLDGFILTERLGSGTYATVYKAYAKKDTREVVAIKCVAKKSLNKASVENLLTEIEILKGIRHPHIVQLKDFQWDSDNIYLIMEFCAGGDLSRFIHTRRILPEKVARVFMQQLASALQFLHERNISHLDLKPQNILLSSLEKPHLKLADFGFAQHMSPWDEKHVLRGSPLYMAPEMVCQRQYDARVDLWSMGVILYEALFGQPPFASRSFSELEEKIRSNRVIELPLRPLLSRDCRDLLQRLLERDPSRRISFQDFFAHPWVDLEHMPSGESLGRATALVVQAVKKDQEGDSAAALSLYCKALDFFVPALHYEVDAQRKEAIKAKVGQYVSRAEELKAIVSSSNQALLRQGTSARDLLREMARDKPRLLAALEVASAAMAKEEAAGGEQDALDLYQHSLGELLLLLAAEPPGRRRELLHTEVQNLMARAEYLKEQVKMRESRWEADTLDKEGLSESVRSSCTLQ
UniProt P07947, whole entry, looked up: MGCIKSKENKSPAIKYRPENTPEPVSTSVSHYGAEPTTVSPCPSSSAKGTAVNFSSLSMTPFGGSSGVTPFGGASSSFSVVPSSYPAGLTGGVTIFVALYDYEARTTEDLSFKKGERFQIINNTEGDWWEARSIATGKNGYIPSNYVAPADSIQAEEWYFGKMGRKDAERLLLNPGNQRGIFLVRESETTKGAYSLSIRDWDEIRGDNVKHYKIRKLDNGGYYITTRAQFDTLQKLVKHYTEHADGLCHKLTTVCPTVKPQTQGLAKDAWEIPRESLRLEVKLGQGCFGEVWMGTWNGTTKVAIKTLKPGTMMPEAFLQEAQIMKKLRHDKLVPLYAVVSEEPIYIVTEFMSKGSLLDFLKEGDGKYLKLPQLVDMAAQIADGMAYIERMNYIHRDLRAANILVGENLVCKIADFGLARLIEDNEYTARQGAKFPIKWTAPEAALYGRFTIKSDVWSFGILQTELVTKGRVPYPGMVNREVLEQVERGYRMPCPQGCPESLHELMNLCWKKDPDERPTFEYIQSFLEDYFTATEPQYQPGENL
UniProt P43403: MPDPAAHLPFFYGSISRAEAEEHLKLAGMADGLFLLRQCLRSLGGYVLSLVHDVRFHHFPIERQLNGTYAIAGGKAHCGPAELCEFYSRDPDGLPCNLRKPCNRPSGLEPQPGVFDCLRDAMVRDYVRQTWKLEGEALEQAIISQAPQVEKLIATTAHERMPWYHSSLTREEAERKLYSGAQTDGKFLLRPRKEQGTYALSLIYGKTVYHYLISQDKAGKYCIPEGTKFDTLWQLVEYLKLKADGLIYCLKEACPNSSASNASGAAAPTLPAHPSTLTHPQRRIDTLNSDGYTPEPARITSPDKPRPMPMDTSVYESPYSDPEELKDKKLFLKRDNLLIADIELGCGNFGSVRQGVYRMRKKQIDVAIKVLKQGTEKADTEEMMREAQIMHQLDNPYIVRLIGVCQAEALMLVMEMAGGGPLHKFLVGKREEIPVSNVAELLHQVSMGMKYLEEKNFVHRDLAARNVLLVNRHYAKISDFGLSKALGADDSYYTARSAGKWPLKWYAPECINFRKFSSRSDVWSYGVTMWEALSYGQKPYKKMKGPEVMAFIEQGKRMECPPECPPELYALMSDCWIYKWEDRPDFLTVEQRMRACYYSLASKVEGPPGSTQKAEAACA
UniProt P00519, whole entry: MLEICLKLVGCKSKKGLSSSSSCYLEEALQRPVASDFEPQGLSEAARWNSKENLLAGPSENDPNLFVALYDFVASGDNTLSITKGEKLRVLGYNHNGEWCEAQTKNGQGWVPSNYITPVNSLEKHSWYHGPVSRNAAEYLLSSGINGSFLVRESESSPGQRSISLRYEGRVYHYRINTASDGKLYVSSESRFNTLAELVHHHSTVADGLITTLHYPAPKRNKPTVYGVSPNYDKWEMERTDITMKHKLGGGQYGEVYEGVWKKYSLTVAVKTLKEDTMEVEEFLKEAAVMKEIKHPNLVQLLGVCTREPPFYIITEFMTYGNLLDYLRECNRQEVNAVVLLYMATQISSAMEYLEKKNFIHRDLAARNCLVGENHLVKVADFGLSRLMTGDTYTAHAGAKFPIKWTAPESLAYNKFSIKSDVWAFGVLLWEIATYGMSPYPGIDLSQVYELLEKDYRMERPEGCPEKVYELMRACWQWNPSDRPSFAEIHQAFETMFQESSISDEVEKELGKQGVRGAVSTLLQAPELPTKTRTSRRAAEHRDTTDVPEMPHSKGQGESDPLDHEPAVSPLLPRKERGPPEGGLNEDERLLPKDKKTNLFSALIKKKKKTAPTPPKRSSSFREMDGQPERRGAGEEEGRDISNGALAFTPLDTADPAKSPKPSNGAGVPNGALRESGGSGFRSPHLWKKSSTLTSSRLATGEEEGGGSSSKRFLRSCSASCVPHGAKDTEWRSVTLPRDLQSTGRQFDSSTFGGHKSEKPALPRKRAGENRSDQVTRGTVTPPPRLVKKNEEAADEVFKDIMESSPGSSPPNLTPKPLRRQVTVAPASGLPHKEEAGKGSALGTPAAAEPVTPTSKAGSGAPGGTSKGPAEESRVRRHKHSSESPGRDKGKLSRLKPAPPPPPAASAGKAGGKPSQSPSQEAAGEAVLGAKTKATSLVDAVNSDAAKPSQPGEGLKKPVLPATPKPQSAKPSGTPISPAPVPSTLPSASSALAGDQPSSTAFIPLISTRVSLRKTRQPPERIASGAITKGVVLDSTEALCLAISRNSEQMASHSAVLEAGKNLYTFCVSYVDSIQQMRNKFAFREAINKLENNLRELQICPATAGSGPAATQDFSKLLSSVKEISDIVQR
UniProt P31749: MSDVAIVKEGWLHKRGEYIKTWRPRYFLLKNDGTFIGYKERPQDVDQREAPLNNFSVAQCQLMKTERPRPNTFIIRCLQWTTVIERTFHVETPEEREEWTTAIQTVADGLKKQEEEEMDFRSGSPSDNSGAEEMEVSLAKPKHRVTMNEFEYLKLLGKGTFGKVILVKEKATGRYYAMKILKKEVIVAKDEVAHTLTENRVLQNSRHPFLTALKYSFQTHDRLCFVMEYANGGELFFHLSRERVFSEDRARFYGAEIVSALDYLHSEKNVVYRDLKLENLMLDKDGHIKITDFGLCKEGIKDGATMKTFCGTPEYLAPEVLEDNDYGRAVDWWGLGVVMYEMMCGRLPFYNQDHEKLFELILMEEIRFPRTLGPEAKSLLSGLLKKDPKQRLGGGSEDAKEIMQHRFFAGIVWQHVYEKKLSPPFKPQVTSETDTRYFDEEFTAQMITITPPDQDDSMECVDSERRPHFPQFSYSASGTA

Legend:
Conditions in all cases: K562; 2-18 h
STK38 = STK38 (UniProt Q15208); test: kinase-Nluc reporter destabilization hit call (1 = scored as downregulated) (binary); higher = compound decreases kinase abundance
SYK = SYK (UniProt P43405); test: as above
TEC = TEC (UniProt P42680); test: as above
TYK2 = TYK2 (UniProt P29597); test: as above
ULK3 = ULK3 (UniProt Q6PHR2); test: as above
YES1 = YES1 (UniProt P07947); test: as above
ZAK = ZAK (UniProt Q9NYL2); test: as above
ZAP70 = ZAP70 (UniProt P43403); test: as above
ABL1 = ABL1 (UniProt P00519); test: number of time points (of 5) at which kinase-Nluc abundance scored as decreased, DMSO-normalised (count); higher = more persistent destabilization
AKT1 = AKT1 (UniProt P31749); test: as above

Row | Structure (SMILES) | kinase-Nluc reporter destabilization hit call (STK38) | kinase-Nluc reporter destabilization hit call (SYK) | kinase-Nluc reporter destabilization hit call (TEC) | kinase-Nluc reporter destabilization hit call (TYK2) | kinase-Nluc reporter destabilization hit call (ULK3) | kinase-Nluc reporter destabilization hit call (YES1) | kinase-Nluc reporter destabilization hit call (ZAK) | kinase-Nluc reporter destabilization hit call (ZAP70) | number of time points (ABL1) | number of time points (AKT1)
1 | CC[C@@H]1CN(C(=O)NCC(F)(F)F)C[C@@H]1c1cnc2cnc3[nH]ccc3n12 [Upadacitinib] (10 µM) | inactive: 0 | inactive: 0 | inactive: 0 | inactive: 0 | inactive: 0 | inactive: 0 | inactive: 0 | inactive: 0 | 0 | 0
2 | C[C@]1(O)C[C@@](N)(c2ccc(-c3nc4n(c3-c3ccccc3)COc3ccncc3-4)cc2)C1 [TAS-117 (hydrochloride)] (10 µM) | inactive: 0 | inactive: 0 | inactive: 0 | inactive: 0 | inactive: 0 | inactive: 0 | inactive: 0 | inactive: 0 | 0 | 0
3 | O=c1ccc2cc(O)c(O)cc2o1 [Esculetin] (10 µM) | inactive: 0 | inactive: 0 | inactive: 0 | inactive: 0 | inactive: 0 | inactive: 0 | inactive: 0 | inactive: 0 | 0 | 0
4 | O=C(Nc1cc(Cl)cc(Cl)c1)Nc1cc(Cl)cc(Cl)c1 (10 µM) | inactive: 0 | inactive: 0 | inactive: 0 | inactive: 0 | inactive: 0 | inactive: 0 | inactive: 0 | inactive: 0 | 0 | 0
5 | CC(C)(C)c1ccc(C(=O)Nc2cn3cc(-n4ccnc4)ccc3n2)cc1 (10 µM) | inactive: 0 | inactive: 0 | inactive: 0 | inactive: 0 | inactive: 0 | inactive: 0 | inactive: 0 | inactive: 0 | 0 | 0
6 | C=CC(=O)Nc1cccc(Oc2nc(Nc3ccc(N4CCN(C)CC4)cc3)ncc2Cl)c1 (2.5 µM) | inactive: 0 | inactive: 0 | inactive: 0 | inactive: 0 | inactive: 0 | inactive: 0 | inactive: 0 | inactive: 0 | 0 | 0
7 | O=C(NCc1cccc(O)c1)c1cc2cc(F)ccc2[nH]1 (10 µM) | inactive: 0 | inactive: 0 | inactive: 0 | inactive: 0 | inactive: 0 | inactive: 0 | inactive: 0 | inactive: 0 | 0 | 0
8 | Cc1cc(F)c(Nc2ncnc3cc(OCc4ccccc4)ccc23)cc1O (10 µM) | inactive: 0 | inactive: 0 | inactive: 0 | inactive: 0 | inactive: 0 | inactive: 0 | inactive: 0 | inactive: 0 | 0 | 0
9 | CN(c1ccc(C(F)(F)F)cc1)S(=O)(=O)c1ccc(C(=O)Nc2nc(-c3ccccn3)cs2)cc1 (2.5 µM) | inactive: 0 | inactive: 0 | inactive: 0 | inactive: 0 | inactive: 0 | inactive: 0 | inactive: 0 | inactive: 0 | 0 | 0
10 | Clc1ccc(Nc2cccc(-c3cn[nH]c3)c2)cc1 (10 µM) | inactive: 0 | inactive: 0 | inactive: 0 | inactive: 0 | inactive: 0 | inactive: 0 | inactive: 0 | inactive: 0 | 0 | 0
11 | Cc1ccc(-c2csc(Cn3nc(CC4OCCCO4)c4ccccc4c3=O)n2)cc1 (10 µM) | inactive: 0 | inactive: 0 | inactive: 0 | inactive: 0 | inactive: 0 | inactive: 0 | inactive: 0 | inactive: 0 | 0 | 0
12 | O=c1sn(-c2cccc3ccccc23)c(=O)n1Cc1ccccc1 [Tideglusib] (10 µM) | inactive: 0 | inactive: 0 | inactive: 0 | inactive: 0 | inactive: 0 | inactive: 0 | inactive: 0 | inactive: 0 | 0 | 0
13 | COc1c(OCCCN2CCOCC2)ccc2c3n(c(=NC(=O)c4cnc(N)nc4)nc12)CCN3 [Copanlisib (dihydrochloride)] (10 µM) | inactive: 0 | inactive: 0 | inactive: 0 | inactive: 0 | inactive: 0 | inactive: 0 | inactive: 0 | inactive: 0 | 5 | 0
14 | COc1cc2nccc(Oc3ccc(NC(=O)Nc4ccc(F)cc4F)c(F)c3)c2cc1OC (10 µM) | inactive: 0 | inactive: 0 | inactive: 0 | inactive: 0 | inactive: 0 | inactive: 0 | inactive: 0 | inactive: 0 | 0 | 0

Some values from the list:
`C[C@]1(O)C[C@@](N)(c2ccc(-c3nc4n(c3-c3ccccc3)COc3ccncc3-4)cc2)C1` [TAS-117 (hydrochloride)] (10 µM) | kinase-Nluc reporter destabilization hit call (TEC): inactive: 0
`C=CC(=O)Nc1cccc(Oc2nc(Nc3ccc(N4CCN(C)CC4)cc3)ncc2Cl)c1` (2.5 µM) | kinase-Nluc reporter destabilization hit call (TYK2): inactive: 0
